The other results are listed elsewhere or left out.

The labels stand for the following.
B1: il2ra_site2_2erj_normal_mot_HHH_b1_07975_000000000_0001_41_57_H_._HHH_eva_0077_af2_0001_0000200020_0000001_0 (protein)
chain: SSDEEEKVEEVEEYATELARKAGVSEEYIELLQRFVELNIKNGVSAEEAKKAAEIAIEIEAKLSS
B2: il2ra_site2_3nfp_normal_mot_HHH_b2_06144_000000151_0001_41_57_H_._HHH_b1_04887_0001_0000500055_0000001_0 (protein)
chain: SSSSDEVEEISVEYAEAVLILAEEANDPELLEELYRLVEQALSKLGDPRLEEILERLEELLSSSS
B3: il2ra_site2_3nfp_normal_mot_HHH_b2_00429_000000100_0001_21_37_H_._HHH_b2_03374_0001_0000300044_0000001_0_af2pred_0001_1_af2pred_swapped (protein)
chain: SSSSNHEEFALRAALISLKLAVEAGNEELVRRLYEDAERAAKNANDPEVLEELERVFEEFHSSSS
B4: il2ra_site2_3nfp_normal_mot_0e529dd47276c7fc43eae82927e5780b_0001_af2_000000030_0001_35_48_H_._1ca096cc36b46ebbf1faa9362c3fa206_0001_1_0001_0000100002_0000001_0 … (protein)
chain: PLLELRLEALEKGDPDLRRLLFELRFLAQERGIPPEEIEELLERIQEELNVPPEEAIEILIKELK
B5: il2ra_site1_3nfp_sap_13_mot_311205a5f7018ed2e03f51fd3ffd5b95_0001_af2_000000228_0001_32_48_H_._c607dfab87a151aea9e7d1f821f406b9_0001_0001_0000200009_0000001_1_0 … (protein)
chain: SSDEFFERLVERVTKLAEEKNDEEVEELAKRALELFKEAEENRDSEAAHEAIRIVARLQLLVSSS
B6: il2ra_site2_2erj_normal_mot_HHH_b1_05749_af2_000000086_0001_23_39_H_._HHH_b2_03852_af2_0001_0000600008_0000001_0 (protein)
chain: SSSSSDEVEEEVRRLLEEARHIPDLREAYRLAVEALHIASKGNSDEALELVHKWLEEQGSSSSSS
B7: il2ra_site2_3nfp_sap_30_mot_HHH_b1_04264_000000089_0001_1_18_H_._HHH_b1_06009_0001_0000200018_0000001_0_0001_af2pred_0001_1_af2pred_swapped (protein)
chain: SSSSDEERQEVEELLKEIERALEEGDEELAEELIKRALLLAIEARDHELLLAVLRLLEKLKSSSS
B8: il2ra_site1_3nfp_sap_7_mot_HHH_b2_04441_af2_000000141_0001_1_20_H_._HHH_b2_07342_af2_0001_0000100004_0000001_1_0001_af2pred_0001_af2pred (protein)
chain: SSSSTDISRRFSELAQEVLKLLKEGDREEAEELLEELERLAREANDPAAKILVERLERALGSSSS
B9: il2ra_site1_3nfp_sap_17_mot_HHH_b1_07673_000000131_0001_39_57_H_._HHH_b1_03075_af2_0001_0000300009_0000001_0_0001_af2pred_0001_af2pred_1_swapped (protein)
chain: DERLVEELVRIAVEQNSPRLLKKILEELERFSGDPEEAKEILRELLERVLGDPEKVEELLELAEE
B10: il2ra_site1_2b5i_normal_mot_2cbe48e66a1f39b3fed734b245ab0a04_0001_000000015_0001_17_31_H_._HHH_b1_03181_0001_0000200007_0000001_0 (protein)
chain: SSSSSDEEEIREEVEELLEQAKRIEDPHENVRVLFRAAAIAWQGKNPELRELVERVAKELSSSSS
B11: il2ra_site2_2erj_sap_20_mot_HHH_b1_01197_000000128_0001_38_49_H_._HHH_b1_03800_0001_0000200005_0000001_0_0001 (protein)
chain: SSSSDEEEERIEELAEEAKRISDLHEVYELLNEMTRIASEANNQELVELVAKLFEEIAKAFSSSS
B12: il2ra_site2_2erj_normal_mot_HHH_b2_06646_af2_000000081_0001_19_36_H_._HHH_b1_01565_af2_0001_0000200025_0000001_0 (protein)
chain: SSSSDEEEEELRKFVEQLVEKFNLDEEFKRRLEESLELALEAGSSPELIRRYLELVAERVSSSSS
B13: il2ra_site2_3nfp_sap_21_mot_HHH_b1_04032_000000208_0001_43_56_H_._HHH_b1_00660_af2_0001_0000600013_0000001_0_0001 (protein)
chain: SSSSSREERLNEEAEHAIRAALERGDKERAELALKLLKAHALVANDPELERLVEELEELLNSSSS
B14: il2ra_site1_3nfp_sap_11_mot_01923d483164837742cf829bee572cc5_0001_af2_000000153_0001_17_30_H_._HHH_b2_08220_af2_0001_0000100001_0000001_1_0001 (protein)
chain: HSMIRLTKRVQRLVPPELLQLLYEIMELNARGNPEEARELIEELRELLEELGNPEAAELVEKALR
B15: il2ra_site1_3nfp_sap_17_mot_HHH_b1_01231_af2_000000170_0001_1_16_H_._HHH_b1_01666_0001_0000200012_0000001_1_0001_af2pred_0001_af2pred_1 (protein)
chain: SLLEKLQELAERTNDPELRAVIRLVENAIRISNTPPEEALELLLEDLRRAGDPEAVRIVEEVLER
B16: il2ra_site2_3nfp_sap_20_mot_HHH_b1_03818_000000217_0001_1_20_H_._HHH_b2_08227_af2_0001_0000600024_0000001_0_0001 (protein)
chain: SSSSDEEEVERLLEEAQELIRQGNPREALEALAEAAHIAFENNNSELFARIAEVLLELAKLSSSS
B17: il2ra_site2_2erj_normal_mot_ems_p1-15H-GBL-16H-GABBL-16H_0222_0001_0001_0002_000000105_0001_1_16_H_._HHH_b1_00778_0001_0000700027_0000001_0 (protein)
chain: SSSDKEEAEELYEQAKELLERGNPEEALKVLLKASQLAFESGDEELFSLLAELAHLIAREGSSSS
B18: il2ra_site2_3nfp_sap_26_mot_HHH_b1_05331_af2_000000251_0001_22_38_H_._HHH_b1_04986_0001_0000400006_0000001_0_0001_af2pred_0001_af2pred (protein)
chain: SSSSDVEERIEELLRQVEELIEKGDPEEAEKLLREAALLAVENNDFEAFALVLNLREKLHSSSSS
B19: il2ra_site2_2erj_sap_5_mot_HHH_b1_07788_af2_000000168_0001_1_20_H_._HHH_b1_03903_0001_0000100003_0000001_0_0001 (protein)
chain: SSSSSAVEELAEALIRTLEKEGDPESAERVEELLEELREKGDPRVEEELARLIWELLRERFSSSS
B20: il2ra_site2_2erj_sap_30_mot_HHH_b2_06851_000000004_0001_39_52_H_._30a957c732f18e89bfa64a8137c0e7c2_0001_1_0001_0000200007_0000001_0_0001 (protein)
chain: SSSSSELRRLYELAVEIAHALARGDEEETRKAIEEAEELAEELDSENAKEILEQLERLVNSSSSS
B21: il2ra_site1_1z92_sap_14_mot_1314d61ee722589b4fd511cf1ceb5c8f_0001_000000256_0001_17_32_H_._HHH_b1_00763_af2_0001_0000600105_0000001_0_0001_af2pred_0001_af2pred_ … (protein)
chain: SSSSDEEEELVRKIVEEYGGDEAVERDAERFARFAKEKGVSEESIEKNLRRVVEIAVRIDNSSSS
B22: il2ra_site2_3nfp_normal_mot_HHH_b2_05281_000000198_0001_39_56_H_._HHH_b2_08293_0001_0000100004_0000001_0_af2pred_0001_af2pred (protein)
chain: SSSSSDEEEQRVRELIEEAEHIEDPEEFREVLAEATRIATEANDPELFHLIAEVFLKFHGSSSSS
B23: il2ra_site1_3nfp_normal_mot_HHH_b1_02637_af2_000000013_0001_1_18_H_._HHH_b1_07972_af2_0001_0000300021_0000001_0_af2pred_dldesign_0_af2pred (protein)
chain: SSSSSPREEVERLIKEASELAKAGKNEEALKLLEEALKLAEKLGAKATTKFIKRCIKILKSSSSS
B24: il2ra_site1_2b5i_normal_mot_f5ff40796168375b462bec8614a1db4a_0001_1_000000138_0001_53_65_H_._HHH_b1_02204_0001_0000500049_0000001_0_af2pred_dldesign_0_af2pred (protein)
chain: SSSSDPGAVDLARELFEEARRVEDPRERLRLLRLALRAARKGKDEELVAEIEAEIAEVLESSSSS

For the assay, the target named is il2ra, P01589. The assay is described as follows: yeast display titration.
In the case of B1, the “apparent Kd” value was “inactive: no binding seen”.
For B2 the value was “inactive: no binding seen”; for B3, “inactive: no binding seen”.
Regarding B4, the “apparent Kd” value is “inactive: no binding seen”.
As for B5, the “apparent Kd” value was “inactive: no binding seen”.
In the case of B6 it was “inactive: no binding seen”.
B7: the “apparent Kd” value was “inactive: no binding seen”.
For B8 the value was “inactive: no binding seen”; for B9, “inactive: no binding seen”.
As to B10, the “apparent Kd” value was “inactive: no binding seen”.
In the case of B11, the “apparent Kd” value was “inactive: no binding seen”.
On to B12, for which the “apparent Kd” value is “inactive: no binding seen”.
For B13 the value was “inactive: no binding seen”.
Turning to B14, the “apparent Kd” value was “inactive: no binding seen”.
B15: the “apparent Kd” value was “inactive: no binding seen”.
As for B16, the “apparent Kd” value is “inactive: no binding seen”.
For B17 the value was “inactive: no binding seen”; for B18, “inactive: no binding seen”.
For B19, the “apparent Kd” value is “inactive: no binding seen”.
Take B20: the “apparent Kd” value is “inactive: no binding seen”.
As to B21, the “apparent Kd” value is “inactive: no binding seen”.
In the case of B22 it was “inactive: no binding seen”.
For B23 the value was “inactive: no binding seen”; for B24, “inactive: no binding seen”.

Values taken from publication PMC10163288.
